No constants are given. Whether binding was seen depends on the method and setting. In cells and extracts the contact can be indirect. Some entries that bind do so weakly or less than the wild type.
Assays:
Experiment in all cases: co-IP; reciprocal coIP of endogenous proteins from human placental tissue, PHTs and HTR8/SVneo cells; antibody on Protein A/G magnetic beads, Pierce IP Lysis Buffer, overnight at 4°C, western blotting
[1] = target: Yes-associated protein 1 (YAP) (human (endogenous in placenta, PHTs and HTR8/SVneo)) (UniProt P46937)
[2] = target: T1, mammalian sterile 20-like kinase 1 (MST1) (human (endogenous in placenta, PHTs and HTR8/SVneo)) (UniProt Q13043)
T1 sequence: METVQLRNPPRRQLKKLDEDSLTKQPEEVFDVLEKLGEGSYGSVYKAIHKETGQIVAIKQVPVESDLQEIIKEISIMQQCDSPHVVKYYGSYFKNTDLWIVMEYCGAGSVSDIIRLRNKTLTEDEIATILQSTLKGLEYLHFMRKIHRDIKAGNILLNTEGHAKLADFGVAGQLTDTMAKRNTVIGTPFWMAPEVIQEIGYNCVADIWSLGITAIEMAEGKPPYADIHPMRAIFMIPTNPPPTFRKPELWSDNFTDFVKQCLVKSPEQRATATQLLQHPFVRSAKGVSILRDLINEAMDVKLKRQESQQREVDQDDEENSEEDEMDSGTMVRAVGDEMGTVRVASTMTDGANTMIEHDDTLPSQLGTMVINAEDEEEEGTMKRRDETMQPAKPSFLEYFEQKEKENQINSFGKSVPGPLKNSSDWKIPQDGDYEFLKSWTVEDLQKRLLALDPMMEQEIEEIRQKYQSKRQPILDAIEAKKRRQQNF

Sequences of proteins named here, by UniProt entry; tags and fusion partners are left off.
UniProt P46937: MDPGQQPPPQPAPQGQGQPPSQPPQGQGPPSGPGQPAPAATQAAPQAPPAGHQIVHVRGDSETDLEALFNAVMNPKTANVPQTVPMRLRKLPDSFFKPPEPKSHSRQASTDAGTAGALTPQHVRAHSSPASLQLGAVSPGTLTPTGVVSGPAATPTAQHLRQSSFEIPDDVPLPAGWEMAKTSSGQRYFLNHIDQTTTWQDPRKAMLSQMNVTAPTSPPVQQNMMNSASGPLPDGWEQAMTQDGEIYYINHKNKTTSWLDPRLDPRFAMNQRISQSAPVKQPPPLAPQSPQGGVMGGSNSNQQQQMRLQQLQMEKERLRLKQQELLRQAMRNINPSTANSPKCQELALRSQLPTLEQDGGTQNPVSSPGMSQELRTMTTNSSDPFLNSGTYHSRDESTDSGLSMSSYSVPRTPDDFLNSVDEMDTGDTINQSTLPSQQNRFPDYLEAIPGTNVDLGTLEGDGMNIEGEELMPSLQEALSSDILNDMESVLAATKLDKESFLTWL

[3] = target: T2, large tumor suppressor 1 (LATS1) (human (endogenous in placenta, PHTs and HTR8/SVneo)) (UniProt O95835)
T2 sequence: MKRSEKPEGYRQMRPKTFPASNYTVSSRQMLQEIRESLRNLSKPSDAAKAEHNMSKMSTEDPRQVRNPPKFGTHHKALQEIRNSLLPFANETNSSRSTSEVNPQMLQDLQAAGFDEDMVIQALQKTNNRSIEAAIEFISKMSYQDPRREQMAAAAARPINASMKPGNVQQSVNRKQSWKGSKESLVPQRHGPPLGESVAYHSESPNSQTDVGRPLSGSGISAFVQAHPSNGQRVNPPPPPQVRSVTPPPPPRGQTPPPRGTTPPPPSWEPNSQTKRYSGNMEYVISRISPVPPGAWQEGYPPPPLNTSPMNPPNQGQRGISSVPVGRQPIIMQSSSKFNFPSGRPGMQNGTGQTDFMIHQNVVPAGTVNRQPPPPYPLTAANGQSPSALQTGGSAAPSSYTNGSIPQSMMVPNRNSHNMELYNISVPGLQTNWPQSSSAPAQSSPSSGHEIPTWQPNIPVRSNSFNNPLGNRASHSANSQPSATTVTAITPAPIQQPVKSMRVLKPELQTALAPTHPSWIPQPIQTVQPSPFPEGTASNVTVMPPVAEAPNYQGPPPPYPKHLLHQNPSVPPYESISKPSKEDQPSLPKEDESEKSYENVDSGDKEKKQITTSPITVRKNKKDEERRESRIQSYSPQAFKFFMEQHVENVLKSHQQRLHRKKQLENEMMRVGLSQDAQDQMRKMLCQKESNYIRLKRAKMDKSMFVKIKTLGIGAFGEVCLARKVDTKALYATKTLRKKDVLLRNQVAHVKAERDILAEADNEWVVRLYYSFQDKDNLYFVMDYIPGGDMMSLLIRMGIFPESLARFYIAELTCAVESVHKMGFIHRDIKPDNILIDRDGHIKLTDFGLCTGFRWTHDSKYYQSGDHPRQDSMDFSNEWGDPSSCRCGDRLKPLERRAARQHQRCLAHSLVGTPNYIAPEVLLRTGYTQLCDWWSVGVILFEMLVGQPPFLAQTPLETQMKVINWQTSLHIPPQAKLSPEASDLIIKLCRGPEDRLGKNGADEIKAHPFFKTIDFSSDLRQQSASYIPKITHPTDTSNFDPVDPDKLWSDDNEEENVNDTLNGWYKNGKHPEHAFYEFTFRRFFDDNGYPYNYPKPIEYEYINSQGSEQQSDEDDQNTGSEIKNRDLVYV

binding [1]: no binding
binding [2]: no binding
binding [3]: binds
B1: PP2A Bβ (protein, UniProt Q00005 1-443)
chain: MEEDIDTRKINNSFLRDHSYATEADIISTVEFNHTGELLATGDKGGRVVIFQREQESKNQVHRRGEYNVYSTFQSHEPEFDYLKSLEIEEKINKIRWLPQQNAAYFLLSTNDKTVKLWKVSERDKRPEGYNLKDEEGRLRDPATITTLRVPVLRPMDLMVEATPRRVFANAHTYHINSISVNSDYETYMSADDLRINLWNFEITNQSFNIVDIKPANMEELTEVITAAEFHPHHCNTFVYSSSKGTIRLCDMRASALCDRHTKFFEEPEDPSNRSFFSEIISSISDVKFSHSGRYIMTRDYLTVKVWDLNMENRPIETYQVHDYLRSKLCSLYENDCIFDKFECVWNGSDSVIMTGSYNNFFRMFDRNTKRDVTLEASRENSKPRAILKPRKVCVGGKRRKDEISVDSLDFSKKILHTAWHPSENIIAVAATNNLYIFQDKVN
